Tests used:
[1] = general procedure: Fmoc solid-phase peptide synthesis; H-Rink Amide ChemMatrix; DIC/Oxyma; HATU/DIPEA for Fmoc-(NMe)Ala-OH and following residue; conditions: whole synthesis, scale of the general procedure 0.1 mmol, 0.2 mmol or 0.5 mmol
[2] = general procedure: Fmoc solid-phase peptide synthesis; H-Rink Amide ChemMatrix; Tentagel S RAM (0.22 mmol/g); Rink Amide ProTide (0.19 mmol/g); DIC/Oxyma; HATU/DIPEA for Fmoc-(NMe)Ala-OH and following residue; conditions: whole synthesis, scale of the general procedure 0.1 mmol, 0.2 mmol or 0.5 mmol

Substance	isolated yield ([1]; overall)	final purity (method not given) [1]	isolated yield ([2]; overall)	final purity (method not given) [2]
Hy-SDSKNT[n-me-A]LWFGPRL-[nh2]	3%	90%		
SDSKNT[Peptoid-Phe]LWFGPRL-[NH2]			5%	93%

From patent US20260248128A1 (Solasta Bio Limited, priority 2021, published 2026)
